Data taken from patent US20140155445A1, “Compounds and Methods for Treating Cancer and Diseases of the Central Nervous System” (Osta Biotechnologies Inc., priority 2007, published 2014).
At least one structure is not confirmed: it was looked up by name or label, or the drawing left a doubt.

System: SKMEL-V+ tumors (blood vessels, CD31 positive cells)
Assay: CD31 / H&E staining, microvessel density of SKMEL-V+ tumors
Type: in vivo, mouse
Conditions: SKMEL-V+ tumors from treated mice
Method: SKMEL-V (human melanoma cells). SKMEL-V cells were derived from SKMEL-24 cells (ATCC) by overexpression of mouse VEGF. […] Tumors were either snap frozen in liquid nitrogen or fixed in 10% buffered formalin and embedded in paraffin. […] BD PharMingen, San Diego, Calif.). […] Sections were rehydrated in PBS and then blocked with 5% normal goat serum for 1 h. The sections were then incubated overnight at 4° C. with CD31 antibody diluted 1:25 in 3% BSA-PBS. […] Paraffin-embedded material was used for Harris' hematoxylin. Microvessel density was quantified using a method described by Weidner et al ([…], and Folkman […]. Med, 1991; 324:1-8). Briefly, randomly vascularized areas were selected (hot spots) under 40× field and 100× fields. Then a 400× field was used to count microvessels in each of these areas. Single endothelial cells or clusters of endothelial cells with or without lumen were considered to be individual vessels. […] All slides were examined blindly with no prior knowledge of the treatment status.

## CN(C)/N=N/c1[nH]cnc1C(N)=O [Dacarbazine, reference compound]
  tumor vascularization (vessel count, size, CD31): minor effect on vessel count
